# According to the supplement of paper PMC3334620:
# Over roughly 33,000 sequences, “E-score (-0.5 to 0.5)” has its median near -8e-05; the highest 2% begin near 0.23. The list shows a part of the results.
# Target: T1, Nrg2 (UniProt P38082)
# T1 sequence: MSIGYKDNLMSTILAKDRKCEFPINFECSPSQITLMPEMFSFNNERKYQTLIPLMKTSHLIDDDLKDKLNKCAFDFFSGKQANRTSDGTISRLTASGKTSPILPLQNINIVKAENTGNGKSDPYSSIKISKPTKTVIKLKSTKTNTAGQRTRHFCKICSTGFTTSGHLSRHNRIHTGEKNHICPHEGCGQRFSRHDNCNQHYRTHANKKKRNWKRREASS
# Test: PBM E-score (8-mer binding enrichment) (E-score (-0.5 to 0.5)); higher = stronger / more preferred TF binding
# Settings: protein concentration: 100 nM; construct: GST-full length
# Summary of the method: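 Detection of bound protein used fluorescent anti-GST, with scans normalised by masliner. The proteins were GST-tagged yeast transcription factors applied at about 100-200 nM to universal all-10-mer Agilent arrays made double-stranded by primer extension. Each ungapped eight-base word, pooled with its reverse complement, was scored with an E-score from the Universal PBM Analysis Suite.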
row,Sequence,PBM E-score
1,CTCAAGAC,0.0293
2,GCAAAAAC,0.0518
3,AGGCCATG,-0.0657
4,CCTCATAC,-0.146
5,TCAGTAAA,0.0352
6,CTCACCCC,-0.102
7,CGTCCCAA,-0.0267
8,CGCCGCGA,0.0854
9,GTTAACTA,0.273
10,CATCTCCC,-0.0152
11,ATGAAAAT,0.15
12,TAAGAGGA,-0.0476
13,ATGGCCAC,-0.109
14,AAAATTAC,-0.0107
15,CAGTTCAG,-0.00064
16,AAGGCGAG,-0.137
17,GTTGAAAA,-0.00304
18,CCGTCTAA,-0.0402
19,CTGTAAGA,0.00541
20,GCGCACAC,0.046
21,CGCAACGC,-0.0196
22,ACAGTTTA,-0.0808
23,GGGGATAC,-0.0501
24,GAGCACCC,-0.0404
25,CAAGTCAC,-0.0137

row,Sequence,PBM E-score
1,CAGATTTC,-0.0458
2,CGGATTAC,-0.174
3,CACGCCTA,-0.227
4,CCTAGAGC,-0.0927
5,CGTTGGAG,-0.17
6,GTTTCACA,0.0563
7,GGCTTTCA,0.0502
8,GACTGCCA,0.0694
9,GCCGCCCA,-0.0819
10,ACGTGCCC,-0.0325
11,AATGAAGG,0.0439
12,AGTCAAAG,-0.0751
13,ACGCACAA,0.0432
14,CCTCGATA,0.138
15,AACAAACG,0.0693
16,GCTTCCTA,-0.057
17,AGTCTGGA,0.0798
18,GCGGTCCC,0.035
19,TCTCTACA,0.0699
20,ATGAAAGC,0.141
21,AGGCACGA,-0.0256
22,CAGAGAAC,-0.135
23,TTAGGGAA,0.00013
24,ATAACGTC,0.0307
25,GCGCTTCC,-0.0589

row,Sequence,PBM E-score
1,GCTTGAAA,-0.0563
2,TCGCTTCA,-0.0525
3,GCCCCAAA,-0.0545
4,GGCAGACA,-0.0288
5,CTTTGTCA,0.102
6,ACCGCAAG,0.00329
7,AGGAATGG,-0.0567
8,GATCATAC,-0.00914
9,AGACTTCC,-0.11
10,CGACCTAG,0.163
11,AATACACC,0.201
12,CGACTGGC,-0.0371
13,ATACAAGC,0.212
14,CAGGGTGG,0.0924
15,CTGTTGAC,-0.108
16,ACATGTGA,-0.0666
17,ACTTTATA,0.0257
18,ACGTCCTC,-0.0759
19,AGATACGC,0.0646
20,CAAAATAA,0.0401
21,ATTCTACC,-0.0983
22,GATGACCA,-0.113
23,ATCTGAGA,-0.0784
24,CACATATC,0.091
25,ATTGACTC,0.0465

# Individual results from the list:
# Entry for CATCTCCC under PBM E-score: -0.0152
# Entry for GCCGCCCA under PBM E-score: -0.0819

# Next entries:

row,Sequence,PBM E-score
1,ATGTTCGA,0.0777
2,GTCAGGGA,0.18
3,TACGGATA,0.0194
4,GCTCGGTA,-0.201
5,AGCATAAC,-0.00035
6,GATTGCAC,0.122
7,CGAATTGA,0.0563
8,AAGGAACT,-0.105
9,ACATATAG,-0.0221
10,TGTGAAAA,-0.0846
11,CTCCACCC,-0.134
12,GATAGATA,-0.06
13,GATCAGGA,0.0728
14,ACAGGACT,-0.104
15,AAGATGGT,0.0332
16,ACGTAAAG,-0.0672
17,CCTCTGCG,-0.241
18,AGTATTGA,0.125
19,AAACGACA,0.203
20,ACGCGTCG,0.161
21,CGATTTTC,0.0455
22,CGCGTGTA,-0.0243
23,TCTGTACA,0.0867
24,CCTAGTCC,-0.205
25,AGATCTGA,-0.0084

row,Sequence,PBM E-score
1,CTCAGCCC,-0.271
2,AAGGCGGG,-0.208
3,GTCGCTCA,-0.0243
4,TCCATCCA,-0.0903
5,ACGATGTG,0.0997
6,TCCTTCAA,-0.102
7,CATTCTCC,-0.125
8,AGCTACGA,0.0935
9,GACTAGTA,-0.0245
10,ACCCCCCG,-0.322
11,ACTATTTC,0.193
12,CGAAGGAC,-0.205
13,ACAAGCTC,-0.039
14,CACTGTCG,-0.177
15,GGCCAGCC,-0.0474
16,GGACTGAC,-0.0649
17,ATCTCCAT,0.0415
18,AATTTGAG,-0.0565
19,AATCAGAA,0.149
20,TTTGAAAA,0.119
21,ATTTATTA,0.273
22,TGGACAAA,0.0708
23,CCACTGAC,-0.142
24,GATATCAC,0.124
25,CGTTGCAC,-0.0794

row,Sequence,PBM E-score
1,ACAGTTCG,0.103
2,AATTCGAC,-0.232
3,CGCACCGA,-0.0482
4,CCGTTTCG,-0.0514
5,AGAGCGTA,-0.0186
6,CTTGTGCA,0.227
7,ACCCTACC,0.154
8,TACGATGA,-0.0904
9,CTCTGGGC,-0.113
10,GCCTTAAC,-0.0167
11,CCTGTAGC,-0.259
12,AGGGGTAA,0.0864
13,AACCGGGG,-0.0683
14,AACACCGG,-0.0363
15,CGAGGCGC,0.038
16,GACGCGCA,0.055
17,AATGACGC,0.0754
18,CGAACCGC,0.182
19,TATCATAA,0.145
20,CGACGCGC,0.0799
21,ATCGAGAG,0.0784
22,AGTGAGCA,-0.196
23,AAGCACGT,0.0258
24,CGGTCATA,0.00512
25,ATTTGGAC,0.128

# Fetched one by one from above:
row,Sequence,PBM E-score
10,GCCTTAAC,-0.0167
5,AGAGCGTA,-0.0186

# More results follow:

row,Sequence,PBM E-score
1,GCTACTAC,0.18
2,TAGCAAGA,-0.034
3,GCAATCAA,0.139
4,ATTACCCC,0.0377
5,CCGCGACA,0.139
6,CTAAATAA,-0.0346
7,TACAATGA,-0.0688
8,GGTGAGGA,-0.121
9,AATCGCCC,-0.00062
10,AGGATCAT,-0.0592
11,GCGGGGTA,0.0152
12,AGCCCGGG,-0.114
13,GTCCTGAA,-0.0502
14,ATGCGGCG,0.0328
15,AATCCAGA,0.119
16,CAGAAGAA,-0.0182
17,AACATTCT,0.0588
18,CTGGACAC,-0.138
19,AAACTGTT,0.137
20,AACTCGTG,0.172
21,AGCAACTG,0.0717
22,ACTAAAAT,0.141
